Primary screen of a compound library

The chains behind the UniProt entries cited, without tags or fusion partners. Residues count along the entry.
UniProt A4I591, 1-473: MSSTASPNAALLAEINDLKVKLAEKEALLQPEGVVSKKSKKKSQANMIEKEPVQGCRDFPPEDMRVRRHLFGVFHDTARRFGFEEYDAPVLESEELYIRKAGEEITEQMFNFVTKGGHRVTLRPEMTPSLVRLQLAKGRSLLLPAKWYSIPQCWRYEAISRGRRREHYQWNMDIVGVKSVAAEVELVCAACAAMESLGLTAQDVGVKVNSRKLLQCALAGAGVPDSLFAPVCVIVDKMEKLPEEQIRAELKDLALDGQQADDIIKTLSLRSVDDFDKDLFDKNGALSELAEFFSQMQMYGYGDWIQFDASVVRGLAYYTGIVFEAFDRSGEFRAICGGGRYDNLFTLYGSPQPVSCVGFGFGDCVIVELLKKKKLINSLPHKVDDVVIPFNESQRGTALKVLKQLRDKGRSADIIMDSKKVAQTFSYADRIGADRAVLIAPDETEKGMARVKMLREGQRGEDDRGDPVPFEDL
UniProt Q4DA54, 1-478: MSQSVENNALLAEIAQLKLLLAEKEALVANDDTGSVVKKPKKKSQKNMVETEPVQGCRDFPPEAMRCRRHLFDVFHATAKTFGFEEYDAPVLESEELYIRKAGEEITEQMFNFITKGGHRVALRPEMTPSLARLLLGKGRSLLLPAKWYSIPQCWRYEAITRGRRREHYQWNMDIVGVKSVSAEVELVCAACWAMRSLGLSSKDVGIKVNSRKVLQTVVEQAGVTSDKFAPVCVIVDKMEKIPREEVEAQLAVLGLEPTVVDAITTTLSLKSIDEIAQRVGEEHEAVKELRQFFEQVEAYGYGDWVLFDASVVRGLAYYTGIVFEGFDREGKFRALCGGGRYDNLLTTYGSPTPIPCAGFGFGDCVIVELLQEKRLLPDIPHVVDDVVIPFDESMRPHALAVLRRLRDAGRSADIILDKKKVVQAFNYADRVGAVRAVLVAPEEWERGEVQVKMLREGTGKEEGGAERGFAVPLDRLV
UniProt P9WPC5, whole entry: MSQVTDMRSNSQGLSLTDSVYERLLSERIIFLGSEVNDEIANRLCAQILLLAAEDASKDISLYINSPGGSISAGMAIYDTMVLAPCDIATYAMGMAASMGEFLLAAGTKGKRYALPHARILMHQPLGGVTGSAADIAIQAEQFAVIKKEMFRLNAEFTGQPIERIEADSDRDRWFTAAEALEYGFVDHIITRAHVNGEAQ
UniProt P9WPC3, whole entry partner: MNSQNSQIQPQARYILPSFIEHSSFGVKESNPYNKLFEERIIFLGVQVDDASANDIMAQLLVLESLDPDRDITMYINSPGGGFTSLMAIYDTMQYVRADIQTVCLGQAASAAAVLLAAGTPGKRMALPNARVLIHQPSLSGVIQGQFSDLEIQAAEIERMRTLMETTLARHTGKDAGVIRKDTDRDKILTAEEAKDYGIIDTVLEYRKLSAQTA

Measurements from “University of Dundee, Small-Polar-MMV Screening Library” (2021), ChEMBL document CHEMBL3988442.

Results are given as percent effect. How 0% and 100% were set is not recorded. Most values in the screen are low, and negative values occur. Compounds were drawn at random from those tested, without regard to their results.

LiHisRS: 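Enzyme assay of histidyl-tRNA synthetase; the read-out is not stated. Target: Histidine-tRNA ligase, Leishmania infantum (UniProt A4I591). Tested at 30 µM. The record gives no direction; compounds that gave an IC50 in retests scored well above the rest, so higher reads as stronger inhibition. The assay is labelled LdHisRS but filed under L. infantum. About 69,000 compounds were tested under these conditions; 0.6% (about 410) showed 50% or more at least once.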
TcHisRS: 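Enzyme assay of histidyl-tRNA synthetase; the read-out is not stated. Target: Histidine-tRNA ligase, Trypanosoma cruzi CL Brener (UniProt Q4DA54). Compounds at 30 µM. Direction is inferred from retests: higher values go with stronger inhibition. About 69,000 compounds were tested under these conditions; 0.045% (about 31) showed 50% or more at least once.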
ClpP1P2: 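Protease assay of ClpP1P2, read by the AMC dye that it sets free. Target: ClpP1P2, Mycobacterium tuberculosis (UniProt P9WPC5 and UniProt P9WPC3). Concentration: 50 µM. Direction is inferred from only a few compounds that gave an IC50; most scored high, so higher reads as stronger inhibition. Most other retested compounds had strongly negative values. Size under these conditions: about 69,000 compounds, about 10 of them at 50% or above in at least one test.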

{"compound": "Cc1cnn(CCNCc2cc(-c3ccccc3)no2)c1", "LiHisRS": 20.43, "TcHisRS": 10.12, "ClpP1P2": 7.239}
{"compound": "Cc1nc(Nc2nncs2)cc(C2CCCN2C)n1", "stereo": "configuration not stated", "LiHisRS": -2, "TcHisRS": -2.996, "ClpP1P2": 10.01}
{"compound": "O=C(c1ccc(F)c(F)c1)N1C[C@H]2CNC[C@H]2C1", "LiHisRS": 11.65, "TcHisRS": 0, "ClpP1P2": -5.509}
{"compound": "Cn1c(-c2ccccc2Cl)nc2cc(C(=O)NCC3(CO)CC3)cnc21", "LiHisRS": 11.48, "TcHisRS": -2.326, "ClpP1P2": 2.538}
{"compound": "CN1C(=O)CO[C@H](c2ccc(NC(=O)c3cccc(F)c3)cc2)[C@H]1CO", "LiHisRS": 12.16, "TcHisRS": 6.522, "ClpP1P2": -11.84}
{"compound": "O=C(Nc1cnc2n1CCCC2)c1cccc(NC(=O)C2CCCC2)c1", "LiHisRS": 26.03, "TcHisRS": 3.96, "ClpP1P2": 6.214}
{"compound": "O=S(=O)(NCc1ccccc1)Nc1cccc(Cn2cncn2)c1", "LiHisRS": -11.48, "TcHisRS": -10.4, "ClpP1P2": -7.122}
{"compound": "Cc1cc(CN(C)C(=O)c2cc(COc3ccccc3)[nH]n2)n[nH]1", "LiHisRS": 5.882, "TcHisRS": 0, "ClpP1P2": -4.583}
{"compound": "CCc1nccn1C1CCCN(C(=O)c2c(C)nsc2NC)C1", "stereo": "configuration not stated", "LiHisRS": 10.34, "TcHisRS": 4.52, "ClpP1P2": -3.186}
{"compound": "CC(C)C(=O)N1CCC(NCc2c(C(C)C)nn(C)c2N(C)C)CC1", "LiHisRS": 10.32, "TcHisRS": 4.706, "ClpP1P2": -5.22}
{"compound": "CC(NC(=O)Nc1cccnc1N1CCCC1)c1ccncc1", "stereo": "configuration not stated", "LiHisRS": 23.68, "TcHisRS": 10.76, "ClpP1P2": -25.28}
{"compound": "O=C(O)c1cc2c(nc1O)CC(c1cccc(Cl)c1)CC2=O", "stereo": "configuration not stated", "LiHisRS": 7.767, "TcHisRS": 6.011, "ClpP1P2": 0.06997}
{"compound": "Cc1cnc(C(=O)N2C[C@@H]3CN(CC4CCCC4)CCO[C@@H]3C2)cn1", "LiHisRS": 13.73, "TcHisRS": 2.732, "ClpP1P2": 15.72}
{"compound": "Cc1cc2c(=O)n3c(nc2s1)CCN(C(=O)c1cnn(C)c1C)CC3", "LiHisRS": 16.67, "TcHisRS": 0.5405, "ClpP1P2": 4.636}
{"compound": "CCS(=O)(=O)Cc1nc(-c2cnn3c(C)cc(C)nc23)no1", "LiHisRS": 9.877, "TcHisRS": 1.84, "ClpP1P2": -13.18}
{"compound": "CN(C)CCCNC(=O)CNC(=O)N1CCc2c([nH]c3ccccc23)C1", "LiHisRS": -5.825, "TcHisRS": 1.639, "ClpP1P2": 0.6762}
{"compound": "CCc1cccc(OCC(=O)NC(C)c2nnc3n2CCC3)c1", "stereo": "configuration not stated", "LiHisRS": 16.87, "TcHisRS": 6.077, "ClpP1P2": 2.551}
{"compound": "CN(C)CC1(O)CCN(S(=O)(=O)c2ccc(Cl)cc2)C1", "stereo": "configuration not stated", "LiHisRS": 18.56, "TcHisRS": 7.778, "ClpP1P2": 22.15}
{"compound": "Cc1ccc(N(C)C2CCN(C(=O)CCc3ccco3)CC2)nn1", "LiHisRS": 58.46, "TcHisRS": 14.94, "ClpP1P2": 6.798}
{"compound": "CCC(C)[C@H](N)c1nnc(SCC(=O)Nc2ccc(C)cc2C)o1", "stereo": "some centres not stated", "LiHisRS": -7.895, "TcHisRS": 3.659, "ClpP1P2": -12.21}
{"compound": "CCOC1COC2(CCN(c3ncc(C)cn3)CC2)C1", "stereo": "configuration not stated", "LiHisRS": 18.87, "TcHisRS": 11.11, "ClpP1P2": -2.149}
{"compound": "Cc1cnn(CCC(=O)NC2CCc3nc(C)cn3C2)c1", "stereo": "configuration not stated", "LiHisRS": 2.679, "TcHisRS": 6.936, "ClpP1P2": -20.55}
{"compound": "O=C(Nc1cc(C(F)(F)F)ccc1Cl)c1ccc(N2CCCC2)nn1", "LiHisRS": -5.983, "TcHisRS": 4.444, "ClpP1P2": 17.71}
{"compound": "O=C(Cc1ccc(F)cc1Cl)N1CC[C@H](CO)[C@@H](O)C1", "LiHisRS": -8, "TcHisRS": 2.717, "ClpP1P2": -0.699}
{"compound": "COCCOc1cccc(CNCC2CN(C)CCO2)c1", "stereo": "configuration not stated", "LiHisRS": 7.143, "TcHisRS": 2.326, "ClpP1P2": -0.1678}
{"compound": "COC(=O)N1CCCC(C(=O)Nc2nc(C)c(SC)s2)C1", "stereo": "configuration not stated", "LiHisRS": 4.464, "TcHisRS": 3.448, "ClpP1P2": 0.9388}

For reference, 2 entries once more:

compound,LiHisRS,TcHisRS,ClpP1P2
CC(NC(=O)Nc1cccnc1N1CCCC1)c1ccncc1 (configuration not stated),23.68,10.76,-25.28
COC(=O)N1CCCC(C(=O)Nc2nc(C)c(SC)s2)C1 (configuration not stated),4.464,3.448,0.9388